Assay results published in article PMC12540712.
Changes are numbered by the printed parent chain. Results are given in words; binding and its absence hold for the method and conditions named. In cells and extracts the contact can be indirect. Some entries that bind do so weakly or less than the wild type. For part of these data: Sequences can lack the tags named with a protein.

Amino acid sequences for entries named in this document (tags omitted). A change or cut given only in a name is not applied to a line headed by its entry.
UniProt P28340: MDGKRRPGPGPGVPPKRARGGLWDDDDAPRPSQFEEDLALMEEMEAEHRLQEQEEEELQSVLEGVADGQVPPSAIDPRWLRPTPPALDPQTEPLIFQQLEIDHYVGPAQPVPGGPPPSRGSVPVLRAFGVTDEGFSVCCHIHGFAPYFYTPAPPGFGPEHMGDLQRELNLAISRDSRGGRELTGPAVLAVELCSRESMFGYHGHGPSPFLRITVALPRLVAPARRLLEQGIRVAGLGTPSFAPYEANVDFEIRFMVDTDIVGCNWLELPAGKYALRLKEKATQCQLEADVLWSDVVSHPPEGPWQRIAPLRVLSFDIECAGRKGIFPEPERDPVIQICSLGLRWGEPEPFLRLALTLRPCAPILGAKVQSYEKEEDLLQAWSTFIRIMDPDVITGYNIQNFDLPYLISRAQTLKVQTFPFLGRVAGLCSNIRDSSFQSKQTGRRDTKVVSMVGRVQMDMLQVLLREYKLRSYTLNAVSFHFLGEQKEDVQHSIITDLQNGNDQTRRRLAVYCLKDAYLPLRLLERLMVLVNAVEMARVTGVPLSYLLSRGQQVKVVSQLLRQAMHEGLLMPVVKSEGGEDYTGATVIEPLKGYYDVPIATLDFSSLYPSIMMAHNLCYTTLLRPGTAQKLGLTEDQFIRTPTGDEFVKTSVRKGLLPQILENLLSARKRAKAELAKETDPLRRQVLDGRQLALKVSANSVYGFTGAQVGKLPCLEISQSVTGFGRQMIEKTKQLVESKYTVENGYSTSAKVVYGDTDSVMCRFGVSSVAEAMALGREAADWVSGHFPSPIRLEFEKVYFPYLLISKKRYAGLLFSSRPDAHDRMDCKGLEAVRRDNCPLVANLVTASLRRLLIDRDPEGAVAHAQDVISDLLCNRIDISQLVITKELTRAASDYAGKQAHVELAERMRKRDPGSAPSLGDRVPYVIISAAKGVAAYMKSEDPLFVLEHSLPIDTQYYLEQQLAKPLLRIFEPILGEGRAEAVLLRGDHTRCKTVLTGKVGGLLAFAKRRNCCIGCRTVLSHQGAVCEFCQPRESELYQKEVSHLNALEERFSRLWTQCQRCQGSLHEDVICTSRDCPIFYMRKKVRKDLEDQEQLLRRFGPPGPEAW

Legend:
[1] = target: T1, endogenous And-1 (human (endogenous in HEK293T)) (UniProt O75717); test: co-IP; endogenous And-1 in HEK293T cells, with or without UVB; protein A/G beads coupled with antibody, 4 °C overnight; 20 mM Tris-HCl pH 8.0, 100 mM NaCl, 1 mM EDTA, 0.5% NP-40, 10 mM NaF
T1 sequence: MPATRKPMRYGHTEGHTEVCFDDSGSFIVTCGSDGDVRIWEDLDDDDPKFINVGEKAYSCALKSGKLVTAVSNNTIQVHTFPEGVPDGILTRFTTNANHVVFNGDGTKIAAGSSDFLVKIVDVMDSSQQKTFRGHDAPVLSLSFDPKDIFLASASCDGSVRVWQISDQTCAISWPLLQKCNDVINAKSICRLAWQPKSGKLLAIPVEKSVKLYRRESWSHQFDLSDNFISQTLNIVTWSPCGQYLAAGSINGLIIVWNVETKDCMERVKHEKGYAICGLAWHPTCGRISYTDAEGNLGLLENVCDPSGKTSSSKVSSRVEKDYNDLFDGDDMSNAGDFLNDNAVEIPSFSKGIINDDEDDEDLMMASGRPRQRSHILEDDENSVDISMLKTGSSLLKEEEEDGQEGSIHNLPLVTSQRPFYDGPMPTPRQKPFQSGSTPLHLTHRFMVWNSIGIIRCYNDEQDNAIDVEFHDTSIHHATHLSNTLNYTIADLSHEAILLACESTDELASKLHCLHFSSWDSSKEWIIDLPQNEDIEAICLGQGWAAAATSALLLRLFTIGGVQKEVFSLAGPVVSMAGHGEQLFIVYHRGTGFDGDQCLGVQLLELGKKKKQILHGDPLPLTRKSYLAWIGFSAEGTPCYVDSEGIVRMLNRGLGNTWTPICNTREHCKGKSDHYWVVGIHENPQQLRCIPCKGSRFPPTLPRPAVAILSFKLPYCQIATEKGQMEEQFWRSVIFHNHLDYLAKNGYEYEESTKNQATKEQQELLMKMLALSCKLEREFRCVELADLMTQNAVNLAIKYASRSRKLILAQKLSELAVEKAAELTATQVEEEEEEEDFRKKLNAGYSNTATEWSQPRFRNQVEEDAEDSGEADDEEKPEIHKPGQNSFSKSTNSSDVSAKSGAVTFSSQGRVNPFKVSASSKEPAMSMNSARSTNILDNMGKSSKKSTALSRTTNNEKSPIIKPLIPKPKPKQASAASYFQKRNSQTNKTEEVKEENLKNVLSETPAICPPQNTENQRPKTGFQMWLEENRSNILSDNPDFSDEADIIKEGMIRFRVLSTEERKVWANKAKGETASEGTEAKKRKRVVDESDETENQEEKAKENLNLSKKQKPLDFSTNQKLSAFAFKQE

[2] = target: T2, And-1 T826A mutant (human) (UniProt O75717); test: co-IP; p125 with WT And-1 or T826A mutant; set-up shown only in Supplementary Fig. 3H
T2 sequence: T1 sequence with T826A

[3] = target: T3, FLAG-And-1, full-length And-1 (FL, 1–1129) (human) (UniProt O75717); test: as above
T3 sequence: T1 sequence

Measured: binding

catalytic subunit of DNA polymerase δ (p125) (from UniProt P28340 1-1107)
binds: all assays above
